Data as given in the supplement of paper PMC10689618.
“And” between values parts separate entries of the source, which are not always exact repeats. Identical values can stand only once. Counter-ions that a name gives are not always drawn. The list shows a part of the results. Repeats are few or missing, and single values can be far off.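 Labelled rat cortical synaptosomes were engulfed by primary human fetal astrocytes. Engulfment equaled a red/green ratio, corrected for calcein live-cell signal and normalized to the plate median. Compounds were toxic when calcein dropped over 30%, and reduced phagocytosis when below 70% of the median above 5 µM.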

Key:
Conditions in all cases: 24 h
[1] = test system: Human fetal astrocytes; experiment: loss of total cells relative to no-compound high-control median (toxicity); higher = more toxic (fewer cells)
[2] = test system: Human fetal astrocytes; experiment: synaptosome phagocytosis (pHrodo/calcein intensity ratio) relative to plate median of data wells; higher = more phagocytosis
[3] = test system: Human fetal astrocytes; experiment: loss of total cells relative to no-compound high-control median (toxicity); higher = more toxic (fewer cells); remark: listed apart in the source
[4] = test system: Human fetal astrocytes; experiment: synaptosome phagocytosis (pHrodo/calcein intensity ratio) relative to plate median of data wells; higher = more phagocytosis; remark: listed apart in the source

Compound | loss of total cells ([1]; 1.39 µM) [%] | loss of total cells ([1]; 2.78 µM) | loss of total cells ([1]; 5.56 µM) | loss of total cells ([1]; 11.11 µM) | loss of total cells ([1]; 22.22 µM) | synaptosome phagocytosis ([2]; 1.39 µM) | synaptosome phagocytosis ([2]; 2.78 µM) | synaptosome phagocytosis ([2]; 5.56 µM) [%] | synaptosome phagocytosis ([2]; 11.11 µM) | synaptosome phagocytosis ([2]; 22.22 µM) | loss of total cells ([3]; 1.39 µM) [%] | loss of total cells ([3]; 2.78 µM) [%] | loss of total cells ([3]; 5.56 µM) [%] | loss of total cells ([3]; 11.11 µM) [%] | loss of total cells ([3]; 22.22 µM) [%] | synaptosome phagocytosis ([4]; 1.39 µM) [%] | synaptosome phagocytosis ([4]; 2.78 µM) [%] | synaptosome phagocytosis ([4]; 5.56 µM) [%] | synaptosome phagocytosis ([4]; 11.11 µM) [%] | synaptosome phagocytosis ([4]; 22.22 µM) [%]
NS(=O)(=O)c1cc(C(=O)O)c(NCc2ccco2)cc1Cl | -6.2 | 1.7% | -3.5% | -3.7% | 38.6% | 91.7% | 102% | 103 | 98.1% | 113% | – | – | – | – | – | – | – | – | – | –
COc1ccc(-c2cc(=O)c3c(O)c(OC)c(O[C@@H]4O[C@H](CO[C@@H]5O[C@@H](C)[C@H](O)[C@@H](O)[C@H]5O)[C@@H](O)[C@H](O)[C@H]4O)cc3o2)cc1 | -5.4 | 8.6% | -6.1% | -22.6% | -5.6% | 126% | 124% | 98.9 | 108% | 151% | – | – | – | – | – | – | – | – | – | –
Cc1cc(N)c2ccccc2[n+]1CCCCCCCCCC[n+]1c(C)cc(N)c2ccccc21 [Dequalinium dichloride] | 10.5 | 22.7% | -3.6% | 11.3% | 44.7% | 120% | 116% | 63.1 | 51.8% | 43.8% | -13 | -27.4 | 11.5 | 3.1 | 8.8 | 73.9 | 89 | 54.6 | 55.1 | 41.1
NS(=O)(=O)c1cc2c(cc1Cl)NC(C1CC3C=CC1C3)NS2(=O)=O (configuration not stated) [Cyclothiazide] | 31.5 | -29.4% | -0.6% | -0.3% | 10.3% | 124% | 97.8% | 88.8 | 93.7% | 96.3% | 2.9 | 8.5 | 10.7 | -21.1 | – | 67.7 | 80.4 | 68.5 | 76.4 | –
COC(=O)N/N=C/c1c[n+]([O-])c2ccccc2[n+]1[O-] | 7.6 | -8% | -13.7% | 32.9% | 1.1% | 110% | 105% | 87.9 | 102% | 117% | – | – | – | – | – | – | – | – | – | –
CC(=O)OC[C@@]1(O)C[C@@]23CC[C@@H]4c5ccoc5CC[C@@]4(C)[C@@H]2CC[C@@H]1C3 | -0.8 | -11.2% | -6.6% | 13.5% | 10.4% | 139% | 84.5% | 83.9 | 108% | 48.5% | – | – | – | – | – | – | – | – | – | –
CC(C)(C)NCC(O)c1cc(O)cc(O)c1 (configuration not stated) | -15.1 | -5.1% | 4.9% | -16.4% | -7% | 97.2% | 104% | 98 | 94.4% | 113% | – | – | – | – | – | – | – | – | – | –
O=C(O)c1ccccc1C(=O)Nc1ccc(S(=O)(=O)Nc2nccs2)cc1 | – | -4.6% and 4% | 3.3% and -3.9% | -8.6% and -19.5% | 8.5% and 6.8% | 102% and 111% | 101% and 93.4% | 112 | 100% and 86.4% | 109% and 96.9% | – | – | – | – | – | – | – | – | – | –
CN(C)CCCN1c2ccccc2CCc2ccccc21 [Imipramine hydrochloride] | -5.6 | -3.1% | -4.9% | 20.5% | -7.6% | 83.5% | 80.3% | 93.5 | 71.3% | 58.9% | -8.1 | 4.1 | 12.7 | 13.3 | 21.5 | 93.9 | 84.7 | 53.2 | 78.2 | 83.8
Cc1c(NC(=O)c2cccnc2)c(=O)n(-c2ccccc2)n1C | -0.4 | 5.4% | 23.9% | 1.3% | 7.6% | 115% | 118% | 115 | 118% | 133% | – | – | – | – | – | – | – | – | – | –
